Data published in the supplement of paper PMC10338343.
± gives the standard deviation. This is a selection; strong and weak results do not stand in their true shares. The uncertainty is large for many entries. The list shows a part of the results.

Assays:
[1] = test system: MILI (PIWIL2) piRISC loaded with L1MC piRNA (26 nt); assay: pre-steady-state target cleavage rate (min^-1); higher = faster piRNA-guided slicing of the target; conditions: guide: L1MC piRNA 5'p-UAACUAAAUACUAUGCAAGCUGUAGG
Summary of the method: (§1)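 With or without 500 nM GTSF1 partner protein, 1 nM active affinity-purified piRISC carrying one synthetic guide was mixed with 0.1 nM transcribed, DNA-blocked target RNA library in HEPES–potassium acetate buffer at 33 °C for 0–8 or 0–960 min. Uncleaved targets were sequenced and normalised to depth and to weakly complementary targets, three trials were pooled, and k3 was capped at 0.0001 min^-1. The pre-steady-state cleavage rate came from a burst-and-steady-state fit.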

[2] = test system: EfPiwi piRISC loaded with L1MC piRNA (26 nt); assay: pre-steady-state target cleavage rate (min^-1); guide: L1MC piRNA 5'p-UAACUAAAUACUAUGCAAGCUGUAGG; MIWI and MILI are mouse PIWI proteins and EfPiwi is from a freshwater sponge; tags in brackets are library labels; higher = faster piRNA-guided slicing of the target
Summary of the method: as §1

[3] = auxiliary factor: 500 nM mouse GTSF1
[4] = auxiliary factor: 500 nM Ephydatia muelleri Gtsf1
[5] = auxiliary factor: none (no Gtsf1)
[6] = auxiliary factor: none (no GTSF1)

Sequence | pre-steady-state target cleavage rate [1, 3] | pre-steady-state target cleavage rate [2, 4] | pre-steady-state target cleavage rate [2, 5] | pre-steady-state target cleavage rate [1, 6]
UCCUGCUACAGCUUGCAUAAUAUUUAGUUA | 0.363 ± 0.034 | 0.00444 ± 0.0021 | 0.000364 ± 0.016 | 
UCCUGGUUGAGCUUGCAUAGUAUUUACAAA |  | 0.00201 ± 0.003 | 0.000703 ± 0.011 | 0.0022 ± 0.0037
UCCUGCAACAGCUUGCAUAGUAUUUACAAA |  | 0.00305 ± 0.0022 | 0.000362 ± 0.022 | 0.00137 ± 0.0047
UCCUGGAACAGCUUGCUAUGUAUUUACAAA |  | 0.000318 ± 0.0093 | 0.000315 ± 0.016 | 0.000645 ± 0.011
UCCUGGAUGUGCUUGCAUUGUAUUUAGAUA |  | 0.00278 ± 0.0033 | 0.000129 ± 0.088 | 0.00159 ± 0.005
UCCUGGUACAGCUUGCAUAGUAAAAUCAAA |  | 0.00181 ± 0.0037 | 0.000347 ± 0.026 | 0.00116 ± 0.0055
UCCUGGUACAGCUUGGCAUAGUAUUUAGUUA | 0.4 ± 0.093 | 0.05 ± 0.016 | 0.00142 ± 0.008 | 
UCCUGGAUGUCCUUGCAUAGUAUGUAGUUA |  | 0.00374 ± 0.0037 | 0.000633 ± 0.013 | 0.00187 ± 0.004
UCCUCCUACAGCUUGCAUAGAAUUUAGUUA |  | 0.0078 ± 0.0023 | 0.00149 ± 0.0052 | 0.00257 ± 0.0032
UCCUGCUACAGCUUGCAUAGAUAAAUCAAA [g11:g25:cont:t1A] |  | 0.000899 ± 0.0062 | 0.000316 ± 0.02 | 0.000161 ± 0.023
UCCUGGAUGAGCUUGCAUAGUAUAUUGUUA |  | 0.00265 ± 0.0033 | 0.000423 ± 0.021 | 0.00177 ± 0.0047
UCCUGGUACAGCUUGGAUAGAAUUUAGUUA |  | 0.00116 ± 0.0069 | 0.000345 ± 0.03 | 0.00256 ± 0.0041
UCCUCCAACAGCUUGCAUAGUAUUUACAAA |  | 0.00355 ± 0.0024 | 0.000498 ± 0.015 | 0.00193 ± 0.0036
UCCUGGAUGACCUUGCAUAGUAUUUUGUUA |  | 0.000779 ± 0.0082 | 0.00088 ± 0.014 | 0.00257 ± 0.0032
UCCUCCUACAGCUUGCAUAGUAUUGUAGUUA |  | 0.0032 ± 0.0012 | < 0.0001 | 0.00171 ± 0.005
UCCUGGUACAGCUUGCAUUGUAUUUAGAUA |  | 0.00292 ± 0.0018 | 0.000281 ± 0.038 | 0.00193 ± 0.0053
UCCUGGAUGUGCUUGGAUAGUAUUUAGAUA |  | 0.000698 ± 0.0045 | 0.000671 ± 0.017 | 0.00155 ± 0.0049
UCCUCCUACAGCUUGCAUAGAAUUUUGUUA |  | 0.00325 ± 0.0016 | 0.000318 ± 0.014 | 0.00146 ± 0.0037
UCCUGGAUGUCGUUCCAUAGUAAUUAGUUA |  | < 0.0001 | 0.000185 ± 0.038 | 0.000213 ± 0.021
UCCUGGAUGAGCUUGCAUAGAAUUUUGUUA |  | 0.00127 ± 0.0031 | 0.000988 ± 0.0099 | 0.00114 ± 0.0066
UCCUGGUACAGCUUGCAUAGUAUUUAGGUA |  | 0.00463 ± 0.0022 | 0.000457 ± 0.026 | 0.00224 ± 0.004
UCCUGGUACAGCUUGCAUACUAUUUAGAUA |  | 0.00109 ± 0.0069 | 0.000201 ± 0.042 | 0.00162 ± 0.0057
UCCUGGAACACCUUGCAUAGUAUUUAGUAA |  | 0.00217 ± 0.0026 | 0.000452 ± 0.015 | 0.00248 ± 0.0034
UCCUCCUACAGCUUGCAUAGUAUUCUAGUUA | 0.316 ± 0.039 | 0.00344 ± 0.0019 | 0.000314 ± 0.016 | 
UCCUGGUUGAGCUUGCAUAGUAUUUUCAAA |  | 0.00218 ± 0.0021 | 0.000287 ± 0.034 | 0.00151 ± 0.0044

Random excerpt: 2 entries already listed, in no set order.
Sequence | pre-steady-state target cleavage rate [1, 3] | pre-steady-state target cleavage rate [2, 4] | pre-steady-state target cleavage rate [2, 5] | pre-steady-state target cleavage rate [1, 6]
UCCUGGAUGUGCUUGGAUAGUAUUUAGAUA |  | 0.000698 ± 0.0045 | 0.000671 ± 0.017 | 0.00155 ± 0.0049
UCCUGGAUGACCUUGCAUAGUAUUUUGUUA |  | 0.000779 ± 0.0082 | 0.00088 ± 0.014 | 0.00257 ± 0.0032
